Data set [1] can be described thus: Transchelation of Ga from NOTA by dedpa. The following applies: for Complex found after adding equivalent dedpa to pre-formed ^67Ga-NOTA: room temperature.
Data set [2] is described as follows: Competition for chelation of ^67Ga between H2dedpa and NOTA. The following applies: 10^−4 M each, pH 4.5, 10 minutes, room temperature.

For `O=C(O)c1cccc(CNCCNCc2cccc(C(=O)O)n2)n1` [^67Ga(dedpa)^+, metal not drawn], the “Complex found after adding equivalent dedpa to pre-formed ^67Ga-NOTA” value in data set [1] (10 minutes) is on record as “Over 98%”. In addition, the “Share of ^67Ga coordinated in direct competition of equal concentrations of NOTA and H2dedpa” value (shortened to “Share of ^67Ga coordinated”) in data set [2] is on record as “Over 98%”.
For the compound `O=C(O)c1cccc(CNCCNCc2cccc(C(=O)O)n2)n1` [Compound H2dedpa], the “Extraction of gallium from the NOTA complex (in words)” value in data set [1] (challenge experiment) is “capable of extracting gallium”. In addition, in data set [2] (listed as (dedpa)^2−), the “Share of ^67Ga coordinated” value was “over 96%”.
As for `O=C(O)CN1CCN(CC(=O)O)CCN(CC(=O)O)CC1` [NOTA, 1,4,7-triazacyclononane-1,4,7-triacetic acid, reference compound], in data set [2], the “Share of ^67Ga coordinated” value was “less than 1%”.
Consider `O=C([O-])CN1CCN(CC(=O)[O-])CCN(CC(=O)[O-])CC1.[Ga+3]` [Ga-NOTA, reference compound], for which, in data set [1] (10 minutes), the “Complex found after adding equivalent dedpa to pre-formed ^67Ga-NOTA” value is listed as 0.2%. The “Ga-NOTA converted to Ga-dedpa” value in data set [1] (pre-formed Ga-NOTA, equivalent dedpa, 10 minutes) is reported as “About 10%”. Moreover, in data set [2], the “Share of ^67Ga coordinated” value amounted to 0.2%.

The values above are taken from US8772446B2, “Bifunctional chelating agents” (Nordion (Canada) Inc., priority 2010, dated 2014).
